Source: paper doi:10.1101/2025.10.29.685433
Read-outs that look alike come from different tables or passages of the source. No constants are given. Whether binding was seen depends on the method and setting. Some entries that bind do so weakly or less than the wild type. For some of these results: Where a sequence is shown, tags or fusion partners need not be part of it.

Chains of the proteins cited; added tags and fusions are not shown. Lines headed by an entry give the natural chain unless they say otherwise; changes in a name come on top.
UniProt Q12522: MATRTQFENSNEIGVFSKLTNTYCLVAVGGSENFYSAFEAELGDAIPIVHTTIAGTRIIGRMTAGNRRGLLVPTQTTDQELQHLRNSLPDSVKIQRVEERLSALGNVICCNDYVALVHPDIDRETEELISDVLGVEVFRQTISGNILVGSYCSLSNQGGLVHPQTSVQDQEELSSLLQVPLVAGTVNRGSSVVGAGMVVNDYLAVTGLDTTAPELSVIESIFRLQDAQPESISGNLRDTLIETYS
UniProt P0CX82: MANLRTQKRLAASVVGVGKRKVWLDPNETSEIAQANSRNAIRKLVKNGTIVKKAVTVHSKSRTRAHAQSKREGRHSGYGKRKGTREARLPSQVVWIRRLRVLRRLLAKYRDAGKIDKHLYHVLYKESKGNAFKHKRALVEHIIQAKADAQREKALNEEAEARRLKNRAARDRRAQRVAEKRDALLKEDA
UniProt P04456: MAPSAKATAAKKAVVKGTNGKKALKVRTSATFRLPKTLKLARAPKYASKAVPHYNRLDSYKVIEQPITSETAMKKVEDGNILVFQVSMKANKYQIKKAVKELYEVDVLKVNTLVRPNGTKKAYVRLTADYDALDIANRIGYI

T1: uL16 P-site loop mutant (uL16^mut), C-terminally Flag-tagged (yeast (S. cerevisiae)) (UniProt P41805)
T1 sequence: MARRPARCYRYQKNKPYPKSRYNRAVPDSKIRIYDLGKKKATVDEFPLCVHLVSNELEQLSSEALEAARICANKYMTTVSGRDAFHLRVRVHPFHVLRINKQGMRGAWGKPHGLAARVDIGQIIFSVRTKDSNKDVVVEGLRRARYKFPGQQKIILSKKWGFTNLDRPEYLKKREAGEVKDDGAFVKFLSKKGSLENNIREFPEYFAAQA


Assays:
Assay in all cases: cryo-EM structure
[1] = target: T1, uL16 P-site loop mutant (uL16^mut), C-terminally Flag-tagged (yeast (S. cerevisiae))
[2] = target: T1, uL16 P-site loop mutant (uL16^mut), C-terminally Flag-tagged (yeast (S. cerevisiae)); remark: listed apart in the source
[3] = target: Tif6-V192F (S. cerevisiae (bypass strain)) (UniProt Q12522)
[4] = target: eL19 (S. cerevisiae (endogenous in BY4741-derived yeast)) (UniProt P0CX82)
[5] = target: uL23 (S. cerevisiae (endogenous in BY4741-derived yeast)) (UniProt P04456)

Row | binding [1] | binding [2] | Molecule | also measured
1 | binds | – | Tif6 (from UniProt Q12522 1-245) | –
2 | binds | – | Tif6-V192F (from UniProt Q12522 1-245) | –
3 | – | binds | Yvh1 (protein, UniProt Q02256 1-364) MAGNANSVDEEVTRILGGIYLGGIRPIIDHRPLGAEFNITHILSVIKFQVIPEYLIRKGYTLKNIPIDDDDVTDVLQYFDETNRFIDQCLFPNEVEYSPRLVDFKKKPQRGAVFAHCQAGLSRSVTFIVAYLMYRYGLSLSMAMHAVKRKKPSVEPNENFMEQLHLFEKMGGDFVDFDNPAYKQWKLKQSIKLDPSGSELVSNSGMFKDSESSQDLDKLTEAEKSKVTAVRCKKCRTKLALSTSFIAHDPPSKESSEGHFIKRAANSHRIIDIQESQANCSHFFIEPLKWMQPELQGKQELEGKFSCPGCSSKVGGYNWKGSRCSCGKWVIPAIHLQTSKVDQFPLQSTALPNMVNFESEKVNR | –
4 | binds | – | Nmd3-Y379D (protein, UniProt P38861 1-518) MEFTPIDPHQHQNAATLLCCNCGTPIDGSTGLVMCYDCIKLTVDITQGIPREANISFCRNCERFLQPPGQWIRAELESRELLAICLRRLKGLTKVRLVDASFIWTEPHSRRIRIKLTVQGEAMTNTIIQQTFEVEYIVIAMQCPDCARSYTTNTWRATVQIRQKVPHKRTFLFLEQLILKHNAHVDTISISEAKDGLDFFYAQKNHAVKMIDFLNAVVPIKHKKSEELISQDTHTGASTYKFSYSVEIVPICKDDLVVLPKKLAKSMGNISQFVLCSKISNTVQFMDPTTLQTADLSPSVYWRAPFNALADVTQLVEFIVLDVDSTGISRGNRVLADITVARTSDLGVNDQVYYVRSHLGGICHAGDSVMGYFIANSNDNSDLFDGLNIDYVPDVVLVKKLYQRKSKKSRHWKLKRMAKEHKDIDASLDYNSRAQKQEMERAEKDYELFLQELEEDAELRQSVNLYKNREANVPPEEHEMDEDEDEDAPQINIDELLDELDEMTLEDGVENTPVESQQ | –
5 | – | binds | Nmd3 (protein, UniProt P38861 1-518) MEFTPIDPHQHQNAATLLCCNCGTPIDGSTGLVMCYDCIKLTVDITQGIPREANISFCRNCERFLQPPGQWIRAELESRELLAICLRRLKGLTKVRLVDASFIWTEPHSRRIRIKLTVQGEAMTNTIIQQTFEVEYIVIAMQCPDCARSYTTNTWRATVQIRQKVPHKRTFLFLEQLILKHNAHVDTISISEAKDGLDFFYAQKNHAVKMIDFLNAVVPIKHKKSEELISQDTHTGASTYKFSYSVEIVPICKDDLVVLPKKLAKSMGNISQFVLCSKISNTVQFMDPTTLQTADLSPSVYWRAPFNALADVTQLVEFIVLDVDSTGISRGNRVLADITVARTSDLGVNDQVYYVRSHLGGICHAGDSVMGYFIANSNYNSDLFDGLNIDYVPDVVLVKKLYQRKSKKSRHWKLKRMAKEHKDIDASLDYNSRAQKQEMERAEKDYELFLQELEEDAELRQSVNLYKNREANVPPEEHEMDEDEDEDAPQINIDELLDELDEMTLEDGVENTPVESQQ | –
6 | binds | binds | Reh1 (protein, UniProt Q06709 1-432) MSSTFFTCNCCVIQFKTSDLQRYHMKTEWHRYNLKRRIANLPPIGAEQFAEKLQISEKEQAENQVDEFGFPVLKPVMNQSNALPQKQKKPIKSKRGRKVGTNLLKRKDRDIAKEKQNRSVSPSGSISSQLSNLTVGTENTNTDYGEDTVSEYGFTSDSNYEYATSDEELDIADKPSDKENEKITITECIYCGKDNKEVERNVKHMFSEHGLFIPERSYLIDLNGLLEFLIKMIVIDHNCLCCNFHGSGLESIRAHMASKRHCRLPYETKEERQLFAPFYDFTYDDHSISKNLQNDRAITSKLSSVYGAKNDEEDGEVDITLVSSENDINANYTTVSIDESGLELTLPTGARLGHRAGQRYYRQNLPSQPNPNESRRTITAADRRMVSGVTEKQYKKGMKKMQQLEKNAINTQIRREIKRVNFQTHYRDELLQ | binding [3]: binds; binding [4]: binds; binding [5]: binds
